# Measurements as given in PubChem BioAssay AID1259415 (National Center for Advancing Translational Sciences (NCATS), 2018).
# Among all 410,000 compounds or so, about 18,000 (4.4%) were called active. Inconclusive results, whose numbers are uncertain, are shown with a selection of clear calls. Cut-off read from the data, not from the text of the source: active = activity change below about -60%; inconclusive = no clear call, values can overlap the other calls; inactive = above about -39%.
# Assay: qHTS Assay for inhibitors of the human cytomegalovirus (HCMV)
# Conditions: HFF cells, HCMV-luciferase reporter, 72 h; at 57.5 µM; active compounds read low
# Summary of the method: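 Steps: HFFs plated, 16 h 37C; compounds added; HCMV-luciferase added to MOI 1 PFU/cell; 72 h 37C; OneGlo reagent, 5 min room temperature; luminescence read, normalized to controls.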
# % is set by controls: 0 for no effect and ±100 for the full control effect.
row,Structure (SMILES),"activity change, negative = inhibition"
1,COc1c(Cl)cc(C(=O)Nc2cccc(-c3nc4ccccc4[nH]3)c2)cc1Cl,inconclusive: -40.5%
2,COc1ccc2c(C)cc(SCc3c(C)noc3C)nc2c1,inactive: 11.8%
3,CC(C)(C)SCCNC(=O)COc1ccc(Cl)cc1,inactive: 26.6%
4,O=C(/C=C/c1ccco1)NCCc1ccc(F)cc1,active: -77.7%
5,O=C(CNC(=O)c1cccc(Cl)c1)Nc1ccc(Br)cc1C(=O)c1ccccc1,inconclusive: -41.4%
6,Nc1nc(=S)c2ncn(C3OC(CO)CC3O)c2[nH]1 (stereo not drawn),inconclusive: -48.8%
7,CCN1CCN(C(=O)c2ccc3c(c2)N(Cc2ccc(Cl)cc2)C(=O)c2ccccc2S3(=O)=O)CC1,active: -60.6%
8,Cc1ccc(CNC(=O)C2CCCN(S(=O)(=O)c3c(C)noc3C)C2)cc1 (stereo not drawn),inconclusive: -51.8%
9,Cc1cc(C)n(-c2n[nH]c(=O)c3ccccc23)n1,inactive: -14%
10,C/C=C(\C)C(=O)O[C@@H]([C@H](O)c1cc2ccc(=O)oc2cc1OC)C(C)(C)O,inactive: 7.24%
11,CCCCCCCCCCOC(=O)C[N+](C)(C)C/C=C(/C)Cl,inconclusive: -54.9%
12,Fc1cccc(Nc2ncnc3[nH]ncc23)c1,inconclusive: -42.8%
13,O=C(Nc1ccc(Cl)cc1)OCc1cc(-c2ccccc2Cl)on1,inactive: 25.4%
14,CCc1ccc(C(O)c2ncc(-c3ccccc3Cl)[nH]2)cc1 (stereo not drawn),active: -95.9%
15,O=C(/C=C/c1ccccc1)COC(=O)c1ccccc1,inconclusive: -48.2%
16,Cc1ccc(S(=O)(=O)N(C)C[C@@H]2Oc3ccc(NC(=O)CCC(F)(F)F)cc3CC(=O)N([C@@H](C)CO)C[C@@H]2C)cc1,inconclusive: -46.8%
17,COc1ccc(Nc2nc(N)c([N+](=O)[O-])c(NCc3ccccc3)n2)cc1,inconclusive: -48.7%
18,O=c1c2ccccc2oc2nc(C3CCCCC3)n(Cc3ccco3)c(=O)c12,inconclusive: -44.9%
19,CN(C)CCNc1ncnc2c1sc1nc(N3CCCC3)c3c(c12)CC(C)(C)OC3,inconclusive: -40.4%
20,CN(Cc1ccccc1)C(=O)c1ccc(NC(=O)C2CCN(C(=O)OC(C)(C)C)CC2)cc1,inconclusive: -41.9%
21,COc1ccc(C(=O)Nc2ccccc2-c2nnn(CC(=O)N3CCOCC3)n2)cc1,inconclusive: -56%
22,O=C(CSCC(=O)NC1CC1)Nc1ccc2ccccc2c1,inactive: 28.7%

row,Structure (SMILES),"activity change, negative = inhibition"
1,CCOC(=O)c1ccc(N=C2NC(=O)CS2)cc1,inactive: -9%
2,COc1ccc(-c2cc(C(F)(F)F)nc(SCC(=O)NCc3cccs3)n2)cc1,inconclusive: -40.8%
3,CCOc1ccccc1NC(=O)CN1CCN(Cc2ccccc2)CC1,inconclusive: -50.9%
4,COCCN(CCOC)S(=O)(=O)c1ccc(NC(=O)c2cnccn2)cc1,inactive: 18.5%
5,CN1CCC(C2(O)c3ccccc3CCc3ccccc32)CC1,inconclusive: -48.7%
6,NC(CSC1(c2ccc(F)cc2)c2ccccc2-c2ccccc21)C(=O)O (stereo not drawn),active: -67.8%
7,COc1ccc(S(=O)(=O)Oc2ccc3ccccc3c2)cc1,inactive: -19.8%
8,COc1ccc2cc(C(=O)C3CCCN(Cc4cnc(C)s4)C3)ccc2c1 (stereo not drawn),active: -78.4%
9,CC(C)(C)C(=O)Cn1c(=O)n(CCCCCC(=O)NCc2ccc3c(c2)OCO3)c(=O)c2sccc21,inconclusive: -55.7%
10,CSc1cccc(NC(=O)NCc2cccc(CNC(=O)Nc3cccc(SC)c3)c2)c1,inconclusive: -52.6%
11,Cc1cccc(OCC(=O)NC(=S)Nc2ccccc2N2CCOCC2)c1,inconclusive: -51.9%
12,COc1ccccc1C(=O)OCc1cc(=O)n2nc(C3CC3)sc2n1,inconclusive: -49.2%
13,CC(C)(CO)CNC(=O)CCc1nnc(Cc2ccc(-c3ccccc3)cc2)o1,inconclusive: -49.6%
14,O=C(/C=C/c1ccccc1Cl)c1ccccc(=O)c1O,inconclusive: -42.3%
15,CC(=O)Oc1c(-c2ccc(Br)o2)oc2ccccc2c1=O,inactive: 7.87%
16,CCC(C(=O)Nc1ccccc1C(=O)OC)n1nc(C)c2c(C)n(-c3ccc(C)cc3)nc2c1=O (stereo not drawn),active: -94.2%
17,Cc1cccc(N(Cc2cc3ccccc3[nH]c2=O)S(=O)(=O)c2ccccc2)c1,inconclusive: -43.2%
18,CCOC(=O)Cn1ccc2cc(S(=O)(=O)N3CCCC3)ccc21,inactive: -17.7%
19,COc1ccc(C(O)c2ncc(-c3ccccc3Cl)[nH]2)cc1F (stereo not drawn),active: -102%
20,COc1ccc(Cl)cc1NC(=O)CSc1nc(N2CCOCC2)nc(N2CCOCC2)n1,inactive: -32.6%
21,C[C@@H](C(=O)Nc1ccc2ccccc2c1)[C@H]1C[C@]1(C)[C@H](NC(=O)OCc1ccccc1)c1ccccc1,inconclusive: -47.5%

# Look-ups from the list:
# For activity change, negative = inhibition, `CC(C)(CO)CNC(=O)CCc1nnc(Cc2ccc(-c3ccccc3)cc2)o1` is entered as inconclusive: -49.6%
# For activity change, negative = inhibition, `COc1ccc(-c2cc(C(F)(F)F)nc(SCC(=O)NCc3cccs3)n2)cc1` is entered as inconclusive: -40.8%
